Earlier results on one compound are cited in patent publication US20210338558A1, “USE OF COLLAGEN BINDING DOMAINS TO DELIVER PRODUCTS TO SKIN” (Fabius Biotechnology, priority 2018, published 2021).

The conditions of the data set: water at ambient temperatures; cited from earlier work.

Each structure is given as a SMILES string.

Turning to `O=C(O)c1ccccc1O` [Salicylic acid], the solubility in water result is reported as “practically insoluble”.
